# Test results: patent publication US20250283871A1, “COMPOSITIONS AND METHODS FOR MODULATING THE INTERACTION BETWEEN SS18-SSX FUSION ONCOPROTEIN AND NUCLEOSOMES” (Dana-Farber Cancer Institute, Inc., priority 2020, published 2025)
# B1: GATAD2A (protein, UniProt Q86YP4 1-633, looked up)
# Transcriptional repressor …: MTEEACRTRSQKRALERDPTEDDVESKKIKMERGLLASDLNTDGDMRVTPEPGAGPTQGLLRATEATAMAMGRGEGLVGDGPVDMRTSHSDMKSERRPPSPDVIVLSDNEQPSSPRVNGLTTVALKETSTEALMKSSPEERERMIKQLKEELRLEEAKLVLLKKLRQSQIQKEATAQKPTGSVGSTVTTPPPLVRGTQNIPAGKPSLQTSSARMPGSVIPPPLVRGGQQASSKLGPQASSQVVMPPLVRGAQQIHSIRQHSSTGPPPLLLAPRASVPSVQIQGQRIIQQGLIRVANVPNTSLLVNIPQPTPASLKGTTATSAQANSTPTSVASVVTSAESPASRQAAAKLALRKQLEKTLLEIPPPKPPAPEMNFLPSAANNEFIYLVGLEEVVQNLLETQGRMSAATVLSREPYMCAQCKTDFTCRWREEKSGAIMCENCMTTNQKKALKVEHTSRLKAAFVKALQQEQEIEQRLLQQGTAPAQAKAEPTAAPHPVLKQVIKPRRKLAFRSGEARDWSNGAVLQASSQLSRGSATTPRGVLHTFSPSPKLQNSASATALVSRTGRHSERTVSAGKGSATSNWKKTPLSTGGTLAFVSPSLAVHKSSSAVDRQREYLLDMIPPRSIPQSATWK
# B2: RBM14 (protein, UniProt Q96PK6 1-669, looked up)
# RNA-binding protein 14: MKIFVGNVDGADTTPEELAALFAPYGTVMSCAVMKQFAFVHMRENAGALRAIEALHGHELRPGRALVVEMSRPRPLNTWKIFVGNVSAACTSQELRSLFERRGRVIECDVVKDYAFVHMEKEADAKAAIAQLNGKEVKGKRINVELSTKGQKKGPGLAVQSGDKTKKPGAGDTAFPGTGGFSATFDYQQAFGNSTGGFDGQARQPTPPFFGRDRSPLRRSPPRASYVAPLTAQPATYRAQPSVSLGAAYRAQPSASLGVGYRTQPMTAQAASYRAQPSVSLGAPYRGQLASPSSQSAAASSLGPYGGAQPSASALSSYGGQAAAASSLNSYGAQGSSLASYGNQPSSYGAQAASSYGVRAAASSYNTQGAASSLGSYGAQAASYGAQSAASSLAYGAQAASYNAQPSASYNAQSAPYAAQQAASYSSQPAAYVAQPATAAAYASQPAAYAAQATTPMAGSYGAQPVVQTQLNSYGAQASMGLSGSYGAQSAAAATGSYGAAAAYGAQPSATLAAPYRTQSSASLAASYAAQQHPQAAASYRGQPGNAYDGAGQPSAAYLSMSQGAVANANSTPPPYERTRLSPPRASYDDPYKKAVAMSKRYGSDRRLAELSDYRRLSESQLSFRRSPTKSSLDYRRLPDAHSDYARYSGSYNDYLRAAQMHSGYQRRM
# B3: C1QBP (protein, UniProt Q07021 74-282, looked up)
# Complement component 1 Q …: LHTDGDKAFVDFLSDEIKEERKIQKHKTLPKMSGGWELELNGTEAKLVRKVAGEKITVTFNINNSIPPTFDGEEEPSQGQKVEEQEPELTSTPNFVVEVIKNDDGKKALVLDCHYPEDEVGQEDEAESDIFSIREVSFQSTGESEWKDTNYTLNTDSLDWALYDHLMDFLADRGVDNTFADELVELSTALEHQEYITFLEDLKSFVKSQ
# B4: IMP4 (protein, UniProt Q96G21 1-291, looked up)
# U3 small nucleolar …: MLRREARLRREYLYRKAREEAQRSAQERKERLRRALEENRLIPTELRREALALQGSLEFDDAGGEGVTSHVDDEYRWAGVEDPKVMITTSRDPSSRLKMFAKELKLVFPGAQRMNRGRHEVGALVRACKANGVTDLLVVHEHRGTPVGLIVSHLPFGPTAYFTLCNVVMRHDIPDLGTMSEAKPHLITHGFSSRLGKRVSDILRYLFPVPKDDSHRVITFANQDDYISFRHHVYKKTDHRNVELTEVGPRFELKLYMIRLGTLEQEATADVEWRWHPYTNTARKRVFLSTE
# B5: DDX5 (protein, UniProt P17844 1-614, looked up)
# Probable ATP-dependent RNA …: MSGYSSDRDRGRDRGFGAPRFGGSRAGPLSGKKFGNPGEKLVKKKWNLDELPKFEKNFYQEHPDLARRTAQEVETYRRSKEITVRGHNCPKPVLNFYEANFPANVMDVIARQNFTEPTAIQAQGWPVALSGLDMVGVAQTGSGKTLSYLLPAIVHINHQPFLERGDGPICLVLAPTRELAQQVQQVAAEYCRACRLKSTCIYGGAPKGPQIRDLERGVEICIATPGRLIDFLECGKTNLRRTTYLVLDEADRMLDMGFEPQIRKIVDQIRPDRQTLMWSATWPKEVRQLAEDFLKDYIHINIGALELSANHNILQIVDVCHDVEKDEKLIRLMEEIMSEKENKTIVFVETKRRCDELTRKMRRDGWPAMGIHGDKSQQERDWVLNEFKHGKAPILIATDVASRGLDVEDVKFVINYDYPNSSEDYIHRIGRTARSTKTGTAYTFFTPNNIKQVSDLISVLREANQAINPKLLQLVEDRGSGRSRGRGGMKDDRRDRYSAGKRGGFNTFRDRENYDRGYSSLLKRDFGAKTQNGVYSAANYTNGSFGSNFVSAGIQTSFRTGNPTGTYQNGYDSTQQYGSNVPNMHNGMNQQAYAYPATAAAPMIGYPMPTGYSQ
# B6: DHX37 (protein, UniProt Q8IY37 1-1157, looked up)
# Probable ATP-dependent RNA …: MGKLRRRYNIKGRQQAGPGPSKGPPEPPPVQLELEDKDTLKGVDASNALVLPGKKKKKTKAPPLSKKEKKPLTKKEKKVLQKILEQKEKKSQRAEMLQKLSEVQASEAEMRLFYTTSKLGTGNRMYHTKEKADEVVAPGQEKISSLSGAHRKRRRWPSAEEEEEEEEESESELEEESELDEDPAAEPAEAGVGTTVAPLPPAPAPSSQPVPAGMTVPPPPAAAPPLPRALAKPAVFIPVNRSPEMQEERLKLPILSEEQVIMEAVAEHPIVIVCGETGSGKTTQVPQFLYEAGFSSEDSIIGVTEPRRVAAVAMSQRVAKEMNLSQRVVSYQIRYEGNVTEETRIKFMTDGVLLKEIQKDFLLLRYKVVIIDEAHERSVYTDILIGLLSRIVTLRAKRNLPLKLLIMSATLRVEDFTQNPRLFAKPPPVIKVESRQFPVTVHFNKRTPLEDYSGECFRKVCKIHRMLPAGGILVFLTGQAEVHALCRRLRKAFPPSRARPQEKDDDQKDSVEEMRKFKKSRARAKKARAEVLPQINLDHYSVLPAGEGDEDREAEVDEEEGALDSDLDLDLGDGGQDGGEQPDASLPLHVLPLYSLLAPEKQAQVFKPPPEGTRLCVVATNVAETSLTIPGIKYVVDCGKVKKRYYDRVTGVSSFRVTWVSQASADQRAGRAGRTEPGHCYRLYSSAVFGDFEQFPPPEITRRPVEDLILQMKALNVEKVINFPFPTPPSVEALLAAEELLIALGALQPPQKAERVKQLQENRLSCPITALGRTMATFPVAPRYAKMLALSRQHGCLPYAITIVASMTVRELFEELDRPAASDEELTRLKSKRARVAQMKRTWAGQGASLKLGDLMVLLGAVGACEYASCTPQFCEANGLRYKAMMEIRRLRGQLTTAVNAVCPEAELFVDPKMQPPTESQVTYLRQIVTAGLGDHLARRVQSEEMLEDKWRNAYKTPLLDDPVFIHPSSVLFKELPEFVVYQEIVETTKMYMKGVSSVEVQWIPALLPSYCQFDKPLEEPAPTYCPERGRVLCHRASVFYRVGWPLPAIEVDFPEGIDRYKHFARFLLEGQVFRKLASYRSCLLSSPGTMLKTWARLQPRTESLLRALVAEKADCHEALLAAWKKNPKYLLAEYCEWLPQAMHPDIEKAWPPTTVH
# B7: GLE1 (protein, UniProt Q53GS7 1-698, looked up)
# mRNA export factor GLE1: MPSEGRCWETLKALRSSDKGRLCYYRDWLLRREDVLEECMSLPKLSSYSGWVVEHVLPHMQENQPLSETSPSSTSASALDQPSFVPKSPDASSAFSPASPATPNGTKGKDESQHTESMVLQSSRGIKVEGCVRMYELVHRMKGTEGLRLWQEEQERKVQALSEMASEQLKRFDEWKELKQHKEFQDLREVMEKSSREALGHQEKLKAEHRHRAKILNLKLREAEQQRVKQAEQERLRKEEGQIRLRALYALQEEMLQLSQQLDASEQHKALLKVDLAAFQTRGNQLCSLISGIIRASSESSYPTAESQAEAERALREMRDLLMNLGQEITRACEDKRRQDEEEAQVKLQEAQMQQGPEAHKEPPAPSQGPGGKQNEDLQVKVQDITMQWYQQLQDASMQCVLTFEGLTNSKDSQAKKIKMDLQKAATIPVSQISTIAGSKLKEIFDKIHSLLSGKPVQSGGRSVSVTLNPQGLDFVQYKLAEKFVKQGEEEVASHHEAAFPIAVVASGIWELHPRVGDLILAHLHKKCPYSVPFYPTFKEGMALEDYQRMLGYQVKDSKVEQQDNFLKRMSGMIRLYAAIIQLRWPYGNRQEIHPHGLNHGWRWLAQILNMEPLSDVTATLLFDFLEVCGNALMKQYQVQFWKMLILIKEDYFPRIEAITSSGQMGSFIRLKQFLEKCLQHKDIPVPKGFLTSSFWRS
# Tested on: BAF complex subunits and histone proteins
# Test: Mass spectrometry proteomics of purified HA-SS18 WT and HA-SS18-SSX1 complexes (Tables 5A-5E)
# Set-up: species or system human
# Details: for Total / Unique: HA-SS18SSX1_CHR_peptides; for Total: total peptides of the identified protein; for Unique: unique peptides of the identified protein; for Total (peptides) / Unique (peptides) / Total (total peptides) / Unique (unique peptides): HEK-293T
# [1] = HA-SS18WT_CHR_peptides: HA-SS18 WT purification from nuclease-treated solubilized chromatin (CHR), label = protein identified
# [2] = HA-SS18SSX1 purification, NE (soluble nuclear extract) fraction, peptides per identified protein
# [3] = HA-SS18WT_NE_peptides: HA-SS18 WT complexes purified from nuclear extract (NE), label = protein identified (Gene Symbol)
# [4] = HA-SS18WT_CHR_peptides: protein identified in HA-SS18 WT BAF complex purification from nuclease-treated solubilized chromatin (CHR)
Molecule,Total,Unique,Total (peptides) [1],Unique (peptides) [1],Total (total peptides) [2],Unique (unique peptides) [2],Total (peptides) [3],Unique (peptides) [3],Total (total peptides) [4],Unique (unique peptides) [4]
B1,4,4,5,5,–,–,–,–,–,–
B2,4,4,6,6,4,4,3,3,–,–
B3,4,4,–,–,3,3,3,3,1,1
B4,4,4,3,3,–,–,–,–,–,–
B5,4,4,4,4,4,4,4,4,–,–
B6,4,4,–,–,–,–,2,2,–,–
B7,4,4,–,–,–,–,–,–,2,2
